Laboratory results: paper PMC10384862 (Pharmaceuticals, 2023)
For some assays here: Strings that start with PEPTIDE1 are HELM notation: dots part the residues, brackets hold end groups and non-standard residues.

Experiments:
[1] = test system: H69-tumor xenograft and organs; assay: Dosimetry (absorbed dose from 212Pb biodistribution, RADAR mouse phantom); assay type: in vivo; settings: RBE = 5
[2] = general procedure: Fmoc solid-phase peptide synthesis; 2-chlorotrityl chloride resin (0.25 g, average loading capacity: 1.6 mmol/g); HATU/DIPEA; PyBop/DIPEA for chelator; settings: whole synthesis; for final HPLC purity: HPLC (Waters 2695, diode array detector)
[3] = general procedure: Fmoc solid-phase peptide synthesis; 2-chlorotrityl chloride resin; HATU/DIPEA; PyBop/DIPEA for chelator; settings: whole synthesis, scale 40 µmol
[4] = scale of the general procedure 40 µmol

## C[C@@H](O)[C@H](NC(=O)[C@@H]1CSSC[C@H](NC(=O)[C@@H](Cc2ccccc2)NC(=O)[C@H]2CC[C@H](CNC(=O)CN3CCN(CC(N)=O)CCN(CC(N)=O)CCN(CC(N)=O)CC3)CC2)C(=O)N[C@@H](Cc2ccc(O)cc2)C(=O)N[C@H](Cc2c[nH]c3ccccc23)C(=O)N[C@@H](CCCCN)C(=O)N[C@@H]([C@@H](C)O)C(=O)N1)C(=O)O [[^212Pb]Pb-eSOMA-01, metal not drawn]
[1]
  Absorbed dose per administered activity, Kidneys: 121.73 ± 14.57 Gy/MBq
  Absorbed dose per administered activity, Large Intestine: 2.03 ± 0.26 Gy/MBq
  Absorbed dose per administered activity, Liver: 9.03 ± 2.24 Gy/MBq
  Absorbed dose per administered activity, Lungs: 3.20 ± 0.40 Gy/MBq
  Absorbed dose per administered activity, Pancreas: 5.40 ± 0.14 Gy/MBq
  Absorbed dose per administered activity, Spleen: 0.73 ± 0.19 Gy/MBq
  Absorbed dose per administered activity, Stomach wall: 5.78 ± 0.77 Gy/MBq
  Absorbed dose per administered activity, Tumor: 35.49 ± 9.89 Gy/MBq
[1]; listed as [^212Pb]Pb-eESOMA-01
  Absorbed dose per administered activity, Kidneys: 121.73 Gy/MBq
  Absorbed dose per administered activity, Tumor: 35.49 Gy/MBq

## D-Phe-cyclo[Cys-Tyr-D-Trp-Lys(ivDde)-Thr-Cys]-Thr
[2]; [4]
  isolated yield: 22%

## DO3AM-Amcha-D-Phe-cyclo[Cys-Tyr-D-Trp-Lys-Thr-Cys]-Thr-OH
[2]; [4]
  final HPLC purity: > 99%
[2]; scale 40 µmol
  isolated mass: 7.4 mg
  isolated yield: 12%

## DO3AM-D-Phe-cyclo[Cys-Tyr-D-Trp-Lys-Thr-Cys]-Thr-OH [DOTAM-TATE]
[3]
  isolated mass: 6.3 mg
[2]; [4]
  final HPLC purity: > 99%
[2]; scale 40 µmol
  isolated yield: 11%

## PEPTIDE1{[DO3AM].[Pip].[dF].C.Y.[dW].K.T.C.T}$PEPTIDE1,PEPTIDE1,4:R3-9:R3$$$V2.0
[2]
  isolated mass: 4.2 mg
[2]; [4]
  final HPLC purity: > 98%
  isolated yield: 7%
